Data source: PubChem BioAssay AID743454 (Peter MacCallum Cancer Centre, 2014)

Assay: 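Genes whose loss kills vorinostat-resistant colon cancer cells under vorinostat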 (primary screen)
System: human HCT116-VR colon cancer cells, selected for vorinostat resistance
Reagents: siRNA pool against human genes, 40 nM siRNA pool
Timing: vorinostat for 24 h, read-out about 72 h after transfection
Challenge: vorinostat at 2.5 µM final
Read-out: 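Two measures, CellTiter-Fluor viability and luminescent caspase 3/7 activity, each as fold change against same-plate mock wells, mean of duplicates, then screen-wide robust z-score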
Direction: viability robust z-score: higher = more viable cells than screen typical; caspase robust z-score: higher = more caspase 3/7 activity than screen typical
Active means: 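a knock-down is a hit when classed RV1 or RV2 for lowered viability, or CA1 or CA2 for caspase activation; those lethal without drug were dropped; hits were retested singly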
In all, the deposit lists about 18,000 reagents; below is a part drawn at random. 450 of all reagents (2.5%) were called active. 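Single biological run; no consistent viability z cut-off exists, so the class columns, not z-scores, define the calls.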 A number with no mark means an inactive call.

no.	Target gene	viability hit class	caspase hit class	viability robust z-score	caspase robust z-score
1	APEX1 (GeneID 328)	no change	no change	0.2	0.02
2	TSSC4 (GeneID 10078)	no change	no change	0.39	-0.28
3	USP30 (GeneID 84749)	no change	no change	0.34	0.6
4	ABHD5 (GeneID 51099)	no change	no change	0.08	-0.81
5	RADX (GeneID 55086)	no change	no change	1.68	-0.02
6	ZNF677 (GeneID 342926)	no change	no change	-0.41	0.6
7	ECSIT (GeneID 51295)	no change	no change	0.32	-0.77
8	LRTM2 (GeneID 654429)	no change	no change	0.12	0.42
9	CD274 (GeneID 29126)	no change	no change	1.16	0.41
10	PDC (GeneID 5132)	no change	no change	0.11	0.02
11	TUBB4A (GeneID 10382)	no change	no change	0.28	-1.25
12	FAHD2B (GeneID 151313)	no change	no change	-0.55	2.86
13	ZNF627 (GeneID 199692)	no change	no change	0.59	-0.72
14	CATIP (GeneID 375307)	no change	no change	-0.12	-0.94
15	LDLRAP1 (GeneID 26119)	no change	no change	0.44	-0.48
16	CUBN (GeneID 8029)	no change	no change	0.44	-1.04
17	C16orf46 (GeneID 123775)	no change	no change	0.68	0.99
18	SAPCD2 (GeneID 89958)	no change	no change	0.57	-0.9
19	SNU13 (GeneID 4809)	no change	no change	0.34	0.2
20	HLF (GeneID 3131)	no change	no change	-0.01	0
21	ADAT3 (GeneID 113179)	no change	no change	0.5	1.22
22	TRIM49B (GeneID 283116)	no change (active)	CA1 (caspase activation)	-0.57	9.75
23	LDHC (GeneID 3948)	no change	no change	-0.55	-0.49
24	MAST2 (GeneID 23139)	no change	no change	-0.44	-0.11
25	IGLL1 (GeneID 3543)	no change	no change	0.55	0.66
26	BLZF1 (GeneID 8548)	no change	no change	0.99	-0.68
27	ADGRF3 (GeneID 165082)	no change	no change	-0.82	2.42
28	ATG101 (GeneID 60673)	no change	no change	0.75	-0.04
29	CT47A9 (GeneID 728042)	no change	no change	1.23	1.64
30	ST6GALNAC2 (GeneID 10610)	no change	no change	0.96	4.29
31	FOXO1 (GeneID 2308)	no change	no change	1.73	-0.48
32	STOML1 (GeneID 9399)	no change	no change	0.07	1.21

Part of the list above, reduced to “viability hit class”:
ZNF677 (GeneID 342926) = no change
ECSIT (GeneID 51295) = no change
LRTM2 (GeneID 654429) = no change
CD274 (GeneID 29126) = no change
PDC (GeneID 5132) = no change
TUBB4A (GeneID 10382) = no change
FAHD2B (GeneID 151313) = no change
ZNF627 (GeneID 199692) = no change
CATIP (GeneID 375307) = no change
LDLRAP1 (GeneID 26119) = no change

More reagents follow.
no.	Target gene	viability hit class	caspase hit class	viability robust z-score	caspase robust z-score
33	MMP21 (GeneID 118856)	no change	no change	-1.03	2.63
34	HMX1 (GeneID 3166)	no change	no change	1.84	-0.48
35	NR5A1 (GeneID 2516)	no change	no change	-0.27	1.92
36	NCDN (GeneID 23154)	no change	no change	0.14	2.5
37	MGAT3 (GeneID 4248)	no change	no change	1.06	-0.94
38	ZC3H12B (GeneID 340554)	no change	no change	0.98	-0.84
39	TMEM132A (GeneID 54972)	no change	no change	-1.26	0.38
40	ABHD4 (GeneID 63874)	no change	no change	-0.18	-0.94
41	TSC22D1 (GeneID 8848)	no change	no change	-0.02	1.79
42	ST13 (GeneID 6767)	no change	no change	0.7	1.38
43	PCDHB16 (GeneID 57717)	no change	no change	-1.02	0.55
44	FASTKD4 (GeneID 9238)	no change	no change	0.81	0.75
45	C2CD4B (GeneID 388125)	no change	no change	0.97	-0.17
46	RTN2 (GeneID 6253)	no change	no change	0.08	-0.29
47	AMTN (GeneID 401138)	no change	no change	-0.01	1.2
48	TMEM141 (GeneID 85014)	no change	no change	-1.17	0.18
49	TCAF1 (GeneID 9747)	no change	no change	-0.15	4.71
50	FRMPD1 (GeneID 22844)	no change	no change	1.61	-0.38
51	GTF2B (GeneID 2959)	no change	no change	1.3	0
52	PPP6R1 (GeneID 22870)	no change	no change	-0.57	0.42
53	HNF4A (GeneID 3172)	no change	no change	0.3	-0.04
54	PACSIN1 (GeneID 29993)	no change	no change	0.03	-0.48
55	LYZL4 (GeneID 131375)	no change	no change	-1.66	0.54
56	ARL1 (GeneID 400)	no change	no change	0.58	-0.32
57	G6PC3 (GeneID 92579)	no change	no change	-0.11	-0.78
58	EIF5B (GeneID 9669)	no change	no change	0.74	-0.01
59	TAS2R5 (GeneID 54429)	no change	no change	0.31	-0.58
60	EEF2K (GeneID 29904)	no change	no change	-0.76	0.85
61	PCDHGB7 (GeneID 56099)	no change	no change	-0.4	-0.26
62	MBIP (GeneID 51562)	no change	no change	-3.45	-1.17
63	PDCD2 (GeneID 5134)	no change	no change	-0.4	-0.06
64	CDK8 (GeneID 1024)	no change	no change	-0.2	-1.09
65	REXO1 (GeneID 57455)	no change	no change	-0.64	0.65
66	EDEM1 (GeneID 9695)	no change	no change	0.63	-0.42
67	ATRX (GeneID 546)	no change	no change	1.73	-0.55
68	COPS2 (GeneID 9318)	no change	no change	-0.09	-0.04
69	SDR16C5 (GeneID 195814)	no change	no change	0.5	-0.66
70	MAP2K2 (GeneID 5605)	no change	no change	-0.18	-0.98
71	LST1 (GeneID 7940)	no change	no change	-1.48	0.88
72	TBX22 (GeneID 50945)	no change	no change	-2.04	0.15
73	RAD54L2 (GeneID 23132)	no change	no change	-0.86	-1.27
